pIC50: −log10 of the molar value. Structures were worked out from names or drawings and are uncertain.
Target: human GPR84 receptor (Homo sapiens, UniProt Q9NQS5)
Experiment: Gαi biosensor BRET assay in HEK293 cells (antagonism of ZQ-16)
Conditions: for pIC50: read-out: BRET IC50, HEK293 cells, antagonism of 200 nmol/L ZQ-16

The chains behind the UniProt entries cited, without tags or fusion partners.
UniProt Q9NQS5, whole entry: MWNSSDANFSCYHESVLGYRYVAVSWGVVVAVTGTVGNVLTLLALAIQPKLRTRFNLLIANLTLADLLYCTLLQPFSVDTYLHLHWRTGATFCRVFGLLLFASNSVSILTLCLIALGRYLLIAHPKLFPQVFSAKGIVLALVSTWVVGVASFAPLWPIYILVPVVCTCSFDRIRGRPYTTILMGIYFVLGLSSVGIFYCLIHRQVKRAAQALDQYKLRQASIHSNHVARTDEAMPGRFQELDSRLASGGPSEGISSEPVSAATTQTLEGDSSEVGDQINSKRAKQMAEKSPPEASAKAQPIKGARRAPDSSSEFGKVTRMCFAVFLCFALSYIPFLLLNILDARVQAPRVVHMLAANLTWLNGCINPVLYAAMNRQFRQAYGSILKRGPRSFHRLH

| pIC50 | % Inhibition (single concentration 25 μM (designated I)) | SMILES |
| --- | --- | --- |
| < 5.52 | *** (percent inhibition of >50-≤75) | Cc1ccc(-c2ccc(-c3nnn(CC4CCCCO4)c3C)cc2)cn1 (stereo not drawn) |
| 6.00 to 6.52 | – | CC(C)c1cc(N2CC(C)(C)C2)ccc1-c1cn(CC2CCCCO2)nn1 (stereo not drawn) |
